For two substances, binding results are on record in publication doi:10.1101/2023.06.23.544932.

Protein sequences, listed by entry. Tags and fused reporters are not part of them. Lines headed by an entry give the natural chain unless they say otherwise; changes in a name come on top.
UniProt Q8S307: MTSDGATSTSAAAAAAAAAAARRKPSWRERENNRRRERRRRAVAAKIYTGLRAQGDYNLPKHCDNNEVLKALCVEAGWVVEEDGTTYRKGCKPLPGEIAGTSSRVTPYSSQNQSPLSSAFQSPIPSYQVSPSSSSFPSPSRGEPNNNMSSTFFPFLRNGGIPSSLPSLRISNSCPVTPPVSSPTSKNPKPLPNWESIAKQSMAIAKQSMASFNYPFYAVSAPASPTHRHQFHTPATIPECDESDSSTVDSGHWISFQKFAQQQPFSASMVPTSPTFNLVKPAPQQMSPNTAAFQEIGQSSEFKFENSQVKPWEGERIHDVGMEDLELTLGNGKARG
UniProt F4JBZ1: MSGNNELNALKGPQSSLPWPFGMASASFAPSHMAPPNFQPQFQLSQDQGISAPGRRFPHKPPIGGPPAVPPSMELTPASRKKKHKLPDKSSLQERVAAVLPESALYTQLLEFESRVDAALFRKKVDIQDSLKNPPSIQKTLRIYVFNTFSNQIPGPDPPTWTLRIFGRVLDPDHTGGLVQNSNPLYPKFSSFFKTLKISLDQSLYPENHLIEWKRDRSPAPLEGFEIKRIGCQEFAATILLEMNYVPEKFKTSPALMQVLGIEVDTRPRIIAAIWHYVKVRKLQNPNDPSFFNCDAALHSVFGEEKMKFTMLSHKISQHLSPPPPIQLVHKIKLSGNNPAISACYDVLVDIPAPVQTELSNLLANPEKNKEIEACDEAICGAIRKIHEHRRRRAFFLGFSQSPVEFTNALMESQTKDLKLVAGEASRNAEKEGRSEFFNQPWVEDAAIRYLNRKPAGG

This assay concerns the target BZR1-FLAG (Arabidopsis thaliana) (UniProt Q8S307). As to the kind of experiment: co-IP.

Results are given in words; binding and its absence hold for the method and conditions named. Binding seen in cells or lysates may run through a third protein. Binding can be weak; no strength is given.

On to “BROMODOMAIN-CONTAINING PROTEIN 13 (BRD13)-HA (from UniProt F4K3B4)”, for which the binding result was “binds”.

“SWI/SNF ASSOCIATED PROTEIN 73A (SWP73A)-HA (from UniProt F4JBZ1)”: the binding result is “binds”.
